The record followed here is paper PMC6139164.

Chains of the proteins cited; added tags and fusions are not shown.
UniProt P46937: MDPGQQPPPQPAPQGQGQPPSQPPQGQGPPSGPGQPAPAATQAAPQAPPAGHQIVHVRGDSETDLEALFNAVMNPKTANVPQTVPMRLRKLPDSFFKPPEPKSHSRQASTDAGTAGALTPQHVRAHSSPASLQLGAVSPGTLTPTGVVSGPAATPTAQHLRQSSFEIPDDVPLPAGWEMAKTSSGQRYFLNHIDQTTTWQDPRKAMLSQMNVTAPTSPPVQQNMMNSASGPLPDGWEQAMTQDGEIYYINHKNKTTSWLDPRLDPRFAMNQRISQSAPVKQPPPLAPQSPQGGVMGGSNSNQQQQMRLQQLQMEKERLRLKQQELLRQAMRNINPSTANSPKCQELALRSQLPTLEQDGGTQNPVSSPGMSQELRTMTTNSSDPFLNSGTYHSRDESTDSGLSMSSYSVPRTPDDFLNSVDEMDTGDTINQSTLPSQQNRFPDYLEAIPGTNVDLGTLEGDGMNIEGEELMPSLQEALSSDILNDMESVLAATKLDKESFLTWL

These are yes or no findings as the source states them, for the method shown. Binding seen in cells or lysates may run through a third protein. Sequences can lack the tags named with a protein.

The target in the experiment is T1, HA-tagged LIM domain only 3 (LMO3) (UniProt Q8TAP4).
T1 sequence: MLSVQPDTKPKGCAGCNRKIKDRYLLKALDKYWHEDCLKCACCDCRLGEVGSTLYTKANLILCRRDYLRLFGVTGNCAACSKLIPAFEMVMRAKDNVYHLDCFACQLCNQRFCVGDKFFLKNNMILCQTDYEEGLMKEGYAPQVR
As to the kind of experiment: co-IP; Huh-7 cell lysates transfected with HA-tagged LMO3 or vector control; immunoprecipitation with anti-HA monoclonal antibody or control IgG; immunoblotting with anti-LATS1 or YAP antibodies. (Immunoblotting shows a protein as a band on a membrane.)

In the case of “Yes Associated Protein (YAP) (from UniProt P46937 1-504)”, the binding result is “no binding”.
